Structures were worked out from names or drawings and are uncertain.
Molecular target: GST fusion protein containing the Met kinase domain (Homo sapiens, UniProt P08581)
Assay: MET Transphosphorylation Assay (ELISA, poly(Glu,Tyr) 4:1 substrate)
Type: biochemical
Details: met transphosphorylation of poly(glutamic acid:tyrosine 4:1) substrate, two values in a cell separated by '/'

Sequences of proteins named here, by UniProt entry; tags and fusion partners are left off. Residues count along the entry.
UniProt P08581, 1078-1345 limits assumed: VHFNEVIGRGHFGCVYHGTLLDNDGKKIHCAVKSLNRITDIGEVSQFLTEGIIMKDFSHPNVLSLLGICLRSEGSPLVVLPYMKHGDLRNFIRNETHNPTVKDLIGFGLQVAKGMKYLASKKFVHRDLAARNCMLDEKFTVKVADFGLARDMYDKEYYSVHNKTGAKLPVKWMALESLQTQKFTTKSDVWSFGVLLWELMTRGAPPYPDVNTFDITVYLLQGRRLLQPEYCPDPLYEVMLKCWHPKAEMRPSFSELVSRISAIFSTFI

SMILES | IC50 (tested form: HCl) [nM] | IC50 [nM]
Cc1cc(CCN2CCCC2)c(C)c2c1NC(=O)C2=NNC(=O)C(C)c1ccc(O)cc1 (centres unmarked) | 200 | 
CC(C(=O)N/N=C1\C(=O)N(CCN2CCCCC2)c2ccc(OCCN3CCCCC3)c(Cl)c21)c1ccc(F)cc1 (centres unmarked) |  | > 20000

Source: patent publication US20060009493A1, “Indolinone hydrazides as c-Met inhibitors” (Sugen, Inc., priority 2003, published 2006)
